According to US20040077080:
For some assays here: A negative result means that nothing was seen under these conditions. For some assays here: Protein sequences can lack the tags named with them. For some assays here: A weaker result is weaker than the reference pair of the same experiment.

Chains of the proteins cited; added tags and fusions are not shown. Chains listed by the source or under a name are the forms on record and can include a tag or linker.
PXR/RXR heterodimer (hPXR/hRXRa) (Homo sapiens), one chain, as listed by the source, chain 1 of 2: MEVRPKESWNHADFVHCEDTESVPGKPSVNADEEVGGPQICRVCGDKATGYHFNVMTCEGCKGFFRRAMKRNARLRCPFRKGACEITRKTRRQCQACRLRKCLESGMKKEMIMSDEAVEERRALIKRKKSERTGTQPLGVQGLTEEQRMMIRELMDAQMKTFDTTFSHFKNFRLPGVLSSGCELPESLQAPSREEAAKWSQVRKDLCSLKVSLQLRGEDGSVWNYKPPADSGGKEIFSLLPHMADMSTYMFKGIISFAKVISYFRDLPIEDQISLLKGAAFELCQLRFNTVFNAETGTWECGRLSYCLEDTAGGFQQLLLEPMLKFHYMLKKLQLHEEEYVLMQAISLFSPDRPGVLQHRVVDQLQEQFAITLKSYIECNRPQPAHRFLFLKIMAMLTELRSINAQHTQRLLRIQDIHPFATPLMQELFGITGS
PXR/RXR heterodimer (hPXR/hRXRa) (Homo sapiens), one chain, as listed by the source, chain 2 of 2: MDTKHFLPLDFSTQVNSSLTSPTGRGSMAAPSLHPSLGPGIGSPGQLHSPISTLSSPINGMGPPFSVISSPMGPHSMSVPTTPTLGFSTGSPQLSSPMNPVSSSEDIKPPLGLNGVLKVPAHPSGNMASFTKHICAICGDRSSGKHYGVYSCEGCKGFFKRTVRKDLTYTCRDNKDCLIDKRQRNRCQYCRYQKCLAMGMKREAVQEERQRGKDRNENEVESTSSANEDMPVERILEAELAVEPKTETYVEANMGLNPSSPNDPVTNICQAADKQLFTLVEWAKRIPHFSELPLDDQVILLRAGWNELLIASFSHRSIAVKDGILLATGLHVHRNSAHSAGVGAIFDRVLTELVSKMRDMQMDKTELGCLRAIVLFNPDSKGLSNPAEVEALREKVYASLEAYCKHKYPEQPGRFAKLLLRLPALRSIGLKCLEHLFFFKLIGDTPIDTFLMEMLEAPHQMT

Assays:
[1] = tested on: PXR/RXR heterodimer (hPXR/hRXRa) (Homo sapiens); test: EMSA; settings: protein translated in vitro; protein details: TNT coupled transcription/translation (Promega); label: 32P
[2] = tested on: T1, CAR (hCAR alone) (Homo sapiens); test: EMSA; settings: protein translated in vitro; protein details: TNT coupled transcription/translation (Promega); label: 32P
T1 sequence (looked up, limits assumed): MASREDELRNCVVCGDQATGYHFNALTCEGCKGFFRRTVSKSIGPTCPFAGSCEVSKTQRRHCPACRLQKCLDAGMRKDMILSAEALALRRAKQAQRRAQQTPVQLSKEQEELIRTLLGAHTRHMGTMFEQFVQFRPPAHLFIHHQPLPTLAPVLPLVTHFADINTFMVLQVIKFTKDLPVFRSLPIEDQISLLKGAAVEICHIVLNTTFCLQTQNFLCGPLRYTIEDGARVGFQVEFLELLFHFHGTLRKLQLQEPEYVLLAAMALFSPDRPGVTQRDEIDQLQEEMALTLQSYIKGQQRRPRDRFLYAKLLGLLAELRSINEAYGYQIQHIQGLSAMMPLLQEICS

AACCAAACTCTTCTGACCCCCAATCT (double strand) [CYP2C19 F4 fragment]
binding result [1]: binds more weakly
binding result [2]: no binding
